Experimental data reported in US9732048B2, “N-(isoxazol-3-yl)-aryl-carboxylic acid amides and use thereof as herbicides” (BAYER CROPSCIENCE AG, priority 2012, dated 2017).
Some results were stated once for a whole list of compounds, not compound by compound.

Assays:
Assay type in all cases: in vivo
Abutilon theophrasti [1] = test: Pre-emergence herbicidal action against harmful plants; details: application rate 320 g/ha, assessed visually after 3 weeks vs untreated controls, 100% = plants have died, 0% = like control plants
Abutilon theophrasti [2] = test: Post-emergence herbicidal action against harmful plants; details: one-leaf stage, application rate 80 g/ha, assessed visually after about 3 weeks vs untreated controls, 100% = plants have died, 0% = like control plants
Amaranthus retroflexus = test: Pre-emergence herbicidal action against harmful plants; details: application rate 320 g/ha, assessed visually after 3 weeks vs untreated controls, 100% = plants have died, 0% = like control plants
Veronica persica = test: as above; details: application rate 320 g/ha, assessed visually after 3 weeks vs untreated controls, 100% = plants have died, 0% = like control plants

Row | SMILES | herbicidal activity in percent (Abutilon theophrasti [1]) | herbicidal action in percent (Abutilon theophrasti [2]) | herbicidal activity in percent (Amaranthus retroflexus) | herbicidal activity in percent (Veronica persica)
1 | Cc1conc1NC(=O)c1ccc(S(C)(=O)=O)c(S(C)(=O)=O)c1C [2-163] | at least 80% | at least 80% | at least 80% | at least 80%
2 | Cc1conc1NC(=O)c1ccc(C(F)(F)F)c(S(C)(=O)=O)c1C [2-173] | at least 80% | – | at least 80% | at least 80%
3 | CSc1c(C(F)(F)F)ccc(C(=O)Nc2nocc2C)c1Cl [2-293] | at least 80% | – | at least 80% | at least 80%
4 | Cc1conc1NC(=O)c1ccc(C(F)(F)F)c([S+](C)[O-])c1Cl (centres unmarked) [2-294] | – | at least 80% | – | –
5 | Cc1conc1NC(=O)c1ccc(C(F)(F)F)c(S(C)(=O)=O)c1Cl [2-295] | at least 80% | at least 80% | at least 80% | at least 80%
6 | Cc1c(C(=O)Nc2nocc2C(C)C)ccc(S(C)(=O)=O)c1S(C)(=O)=O [5-163] | at least 80% | – | at least 80% | at least 80%
7 | Cc1c(C(=O)Nc2nocc2C(C)C)ccc(C(F)(F)F)c1[S+](C)[O-] (centres unmarked) [5-172] | – | at least 80% | – | –
8 | CCS(=O)(=O)c1ccc(C(=O)Nc2nocc2CCC#N)c(Cl)c1C1=NOC(CC#N)C1 (centres unmarked) [9-343, 2-chloro-N-[4-(2-cyanoethyl)-1,2-oxazol-3-yl]-3-[5-(cyanomethyl)-4,5-dihydro-1,2-oxazol-3-yl]-4-(ethylsulfonyl)benzamide] | – | at least 80% | – | –
